Source: publication PMC4368784
Results are given in words; binding and its absence hold for the method and conditions named. Binding seen in cells or lysates may run through a third protein. Some entries that bind do so weakly or less than the wild type. Sequences can lack the tags named with a protein. Each block holds one binder with its values, some of them ahead of it.

What was measured:
[1] = target: T1, DIM-7-3xFLAG (N. crassa) (UniProt Q1K7K7); assay: co-IP; anti-FLAG immunoprecipitation of 3xFLAG-tagged DCDC members from nuclei of dim-3+ (WT) and dim-3 N. crassa strains; partner detected by western blot and normalised to bait level
T1 sequence: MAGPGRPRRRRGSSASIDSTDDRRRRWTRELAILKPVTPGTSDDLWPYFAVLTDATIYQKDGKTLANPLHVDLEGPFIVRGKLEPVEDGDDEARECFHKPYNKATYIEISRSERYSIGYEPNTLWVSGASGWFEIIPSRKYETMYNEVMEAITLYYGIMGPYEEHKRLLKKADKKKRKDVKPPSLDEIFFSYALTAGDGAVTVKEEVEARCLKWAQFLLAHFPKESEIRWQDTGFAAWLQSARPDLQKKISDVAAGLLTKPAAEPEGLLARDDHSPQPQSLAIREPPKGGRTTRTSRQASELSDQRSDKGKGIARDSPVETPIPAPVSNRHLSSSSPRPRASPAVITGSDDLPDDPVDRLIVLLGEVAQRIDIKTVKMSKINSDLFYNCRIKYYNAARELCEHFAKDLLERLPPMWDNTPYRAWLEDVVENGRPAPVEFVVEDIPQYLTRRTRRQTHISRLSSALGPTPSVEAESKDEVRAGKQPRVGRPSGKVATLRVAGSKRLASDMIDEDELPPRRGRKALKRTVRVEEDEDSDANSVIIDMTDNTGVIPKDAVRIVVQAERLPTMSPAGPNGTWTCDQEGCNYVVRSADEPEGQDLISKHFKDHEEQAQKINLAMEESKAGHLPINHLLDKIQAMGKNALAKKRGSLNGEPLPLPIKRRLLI

[2] = target: T2, DIM-9-3xFLAG (N. crassa) (UniProt Q7RVP2); assay: as above
T2 sequence: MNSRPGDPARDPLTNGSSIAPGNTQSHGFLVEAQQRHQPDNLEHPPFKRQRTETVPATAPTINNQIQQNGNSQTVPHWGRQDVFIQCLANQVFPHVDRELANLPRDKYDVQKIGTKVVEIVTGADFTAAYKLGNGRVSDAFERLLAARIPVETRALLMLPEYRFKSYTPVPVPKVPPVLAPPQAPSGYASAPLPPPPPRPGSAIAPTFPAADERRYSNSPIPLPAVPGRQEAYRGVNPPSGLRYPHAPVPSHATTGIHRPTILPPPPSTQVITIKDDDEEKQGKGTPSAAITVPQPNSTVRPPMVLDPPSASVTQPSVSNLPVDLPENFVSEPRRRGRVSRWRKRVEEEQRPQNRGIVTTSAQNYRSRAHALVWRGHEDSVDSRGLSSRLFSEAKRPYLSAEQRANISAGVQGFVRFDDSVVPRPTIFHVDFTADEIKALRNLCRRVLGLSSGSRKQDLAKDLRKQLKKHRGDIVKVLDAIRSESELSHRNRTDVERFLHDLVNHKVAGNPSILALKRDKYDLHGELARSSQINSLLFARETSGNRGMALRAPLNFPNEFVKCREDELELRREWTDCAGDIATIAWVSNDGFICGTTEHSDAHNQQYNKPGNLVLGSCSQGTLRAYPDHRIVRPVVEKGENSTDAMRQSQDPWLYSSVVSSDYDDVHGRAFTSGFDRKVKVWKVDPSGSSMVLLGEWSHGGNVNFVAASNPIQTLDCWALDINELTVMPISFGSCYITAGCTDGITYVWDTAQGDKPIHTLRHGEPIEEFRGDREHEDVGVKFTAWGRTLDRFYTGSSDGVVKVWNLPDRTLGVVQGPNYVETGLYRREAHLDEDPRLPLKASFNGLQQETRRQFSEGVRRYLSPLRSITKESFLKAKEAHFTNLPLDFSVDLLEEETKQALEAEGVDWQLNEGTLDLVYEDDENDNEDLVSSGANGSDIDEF

binding [1]: binds
binding [2]: binds
B1: DIM-5 (enzyme, UniProt Q8X225 1-331)
chain: MEKAFRPHFFNHGKPDANPKEKKNCHWCQIRSFATHAQLPISIVNREDDAFLNPNFRFIDHSIIGKNVPVADQSFRVGCSCASDEECMYSTCQCLDEMAPDSDEEADPYTRKKRFAYYSQGAKKGLLRDRVLQSQEPIYECHQGCACSKDCPNRVVERGRTVPLQIFRTKDRGWGVKCPVNIKRGQFVDRYLGEIITSEEADRRRAESTIARRKDVYLFALDKFSDPDSLDPLLAGQPLEVDGEYMSGPTRFINHSCDPNMAIFARVGDHADKHIHDLALFAIKDIPKGTELTFDYVNGLTGLESDAHDPSKISEMTKCLCGTAKCRGYLW

binding [1]: binds
B2: DIM-9-3xHA (protein, UniProt Q7RVP2 1-943)
chain: T2 sequence
